Laboratory results reported in patent publication US20260198498A1, “FUNGICIDAL COMPOSITIONS” (SYNGENTA CROP PROTECTION AG, priority 2022, published 2026).
Some of these results come from one statement about several compounds together.

Test system: Fusarium culmorum
Type: cell-based
Conditions: 20 ppm; liquid culture, photometrically 3 to 4 days after application

`Cc1c([C@H]2CN(C(=O)c3cc(-c4ncc(F)cc4F)on3)[C@@H](C)c3ccccc32)cnn1C` (racemic) [X.21, [5-(3,5-difluoro-2-pyridyl)isoxazol-3-yl]-[rac-(1S,4S)-4-(1,5-dimethylpyrazol-4-yl)-1-methyl-3,4-dihydro-1H-isoquinolin-2-yl]methanone] was tested, and the “control of Fusarium culmorum” value was “at least 80%”.
